From a melanoma drug combination screen (doi:10.1371/journal.pone.0140310); values rounded.

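Human melanoma cell lines in 1,536-well plates were treated with a pair of drugs for 72 h, then fixed, stained and imaged. Values are the share of nuclei positive for cleaved PARP as a percentage of the same share in the DMSO control: 100 is the control level, higher means more apoptosis. Every drug was used at one fixed concentration, the higher of two screened. No replicate spread is given; individual values may be noisy. Basal and induced levels differ widely between cell lines.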
This is part of the screen, not chosen by result.
A dash means that no value is listed here.

Every entry is a combination with BMS-536924 at 1000 nM: Cc1cc(N2CCOCC2)cc2[nH]c(-c3c(NC[C@@H](O)c4cccc(Cl)c4)cc[nH]c3=O)nc12

| # | Second drug | COLO 792 | WM1745 | LB2518-MEL | MEL-HO | LOX IMVI | WM115 | WM1716 | WM3526 | COLO 800 | RVH-421 | UACC-62 | G-361 |
|---|---|---|---|---|---|---|---|---|---|---|---|---|---|
| 1 | C[C@]1(O)C[C@@H](c2nc(-c3ccc4ccc(-c5ccccc5)nc4c3)c3c(N)nccn32)C1 at 2000 nM | 134 | 129 | 124 | 140 | 82.7 | 106 | 15.3 | 195 | 182 | 81.9 | 56.4 | 124 |
| 2 | Cc1cc(Nc2cc(N3CCN(C)CC3)nc(/C=C/c3ccccc3)n2)n[nH]1 at 200 nM | 332 | 228 | 103 | 70.1 | 41.1 | 203 | 110 | 265 | 427 | 150 | 148 | 295 |
| 3 | Cc1cc([N+](=O)[O-])ccc1NS(=O)(=O)c1cc(Cl)ccc1Cl at 5000 nM | 466 | 172 | 32.0 | 203 | 53.6 | 134 | 47.9 | 80.5 | 167 | 63.1 | 184 | 761 |
| 4 | Cc1nc(Nc2ncc(C(=O)Nc3c(C)cccc3Cl)s2)cc(N2CCN(CCO)CC2)n1 at 20 nM | 781 | 3540 | 550 | 87.9 | 275 | 208 | 650 | 197 | 196 | 118 | 198 | 323 |
| 5 | O=C(O)C(=O)Nc1sc2c(c1C(=O)O)CCNC2 at 8330 nM | 31.3 | 185 | 77.2 | 68.2 | 42.6 | 218 | 107 | 156 | 174 | 65.0 | 59.5 | 99.2 |
| 6 | Cn1cc(/C=C2\C(=O)Nc3cccnc32)c2ccccc21 at 2000 nM | 161 | 161 | 67.2 | 49.7 | 122 | 63.4 | 39.8 | 177 | 221 | 132 | 83.1 | 117 |
| 7 | CN(c1ncccc1CNc1nc(Nc2ccc3c(c2)CC(=O)N3)ncc1C(F)(F)F)S(C)(=O)=O at 400 nM | 251 | 177 | 108 | 142 | 98.6 | 70.4 | 51.1 | 45.1 | 127 | 112 | 99.5 | 43.3 |
| 8 | Cn1cc(C2=C(c3cn(C4CCN(Cc5ccccn5)CC4)c4ccccc34)C(=O)NC2=O)c2ccccc21 at 4000 nM | 147 | 185 | 141 | 144 | 156 | 94.3 | 452 | 186 | 275 | 126 | 158 | 114 |
| 9 | COc1ccc(-c2ccc3c(N4CCOCC4)nc(N4C[C@@H](C)O[C@@H](C)C4)nc3n2)cc1CO at 100 nM | 165 | 183 | 226 | 149 | 109 | 114 | 153 | 172 | 52.9 | 108 | 117 | 217 |
| 10 | Nc1nc(F)nc2c1ncn2[C@@H]1O[C@H](CO)[C@@H](O)[C@@H]1O at 1000 nM | 227 | 139 | 79.7 | 174 | 122 | 117 | 88.5 | 4280 | 109 | 159 | 119 | 164 |
| 11 | O=C(CCCCCCC(=O)Nc1ccccc1)NO at 400 nM | 286 | 151 | 114 | 90.1 | 97.6 | 209 | 138 | 120 | 300 | 136 | 226 | 161 |
| 12 | CO[C@H]1C[C@@H]2CC[C@@H](C)[C@@](O)(O2)C(=O)C(=O)N2CCCC[C@H]2C(=O)O[C@H]([C@H](C)C[C@@H]2CC[C@@H](OCCO)[C@H](OC)C2)CC(=O)[C@H](C)/C=C(\C)[C@@H](O)[C@@H](OC)C(=O)[C@H](C)C[C@H](C)/C=C/C=C/C=C/1C at 100 nM | 462 | 143 | 144 | 112 | 193 | 153 | 61.5 | 210 | 61.0 | 96.0 | 159 | 107 |
| 13 | CCCS(=O)(=O)Nc1ccc(F)c(C(=O)c2c[nH]c3ncc(Cl)cc23)c1F at 400 nM | 204 | 135 | - | 51.5 | 161 | 130 | 150 | 562 | 266 | 51.9 | 174 | 345 |
| 14 | COc1ccc(COc2ccc(Cc3cnc(N)nc3N)cc2OC)cc1 at 5000 nM | 144 | 155 | 96.1 | 96.2 | 234 | 101 | 9.8 | 56.2 | 180 | 182 | 121 | 127 |
| 15 | CN1CCN(c2ccc3nc(-c4c(N)c5c(F)cccc5[nH]c4=O)[nH]c3c2)CC1 at 500 nM | 377 | 372 | 81.2 | 102 | 267 | 153 | 81.4 | 539 | 458 | 97.7 | 122 | 397 |
| 16 | O=C(O)c1ccc2c(c1)nc(Nc1cccc(Cl)c1)c1ccncc12 at 2000 nM | 246 | 125 | 74.7 | 414 | 207 | 94.4 | 346 | 925 | 215 | 43.8 | 165 | 163 |
| 17 | CC(C)(C)c1cnc(CSc2cnc(NC(=O)C3CCNCC3)s2)o1 at 50 nM | 571 | 157 | 134 | 40.2 | 51.7 | 225 | 217 | 180 | 368 | 132 | 173 | 83.9 |
| 18 | Cn1cnc2c(F)c(Nc3ccc(Br)cc3Cl)c(C(=O)NOCCO)cc21 at 75 nM | 405 | 169 | 609 | 88.5 | 62.2 | 82.6 | 176 | 688 | 242 | 56.5 | 170 | 379 |
| 19 | Clc1ccc(Nc2nnc(Cc3ccncc3)c3ccccc23)cc1 at 10000 nM | 177 | 122 | 49.7 | 94.6 | 374 | 33.7 | 93.8 | 190 | 168 | 65.1 | 119 | 124 |
| 20 | c1cc(-c2cnn3cc(-c4ccc(OCCN5CCCCC5)cc4)cnc23)ccn1 at 2000 nM | 74.7 | 299 | 209 | 78.0 | 93.5 | 70.3 | 41.3 | 305 | 149 | 135 | 394 | 205 |
| 21 | CCN(CC)CCNC(=O)c1c(C)[nH]c(/C=C2\C(=O)Nc3ccc(F)cc32)c1C at 2000 nM | 867 | 207 | 457 | 70.6 | 283 | 53.2 | 132 | 365 | 205 | 75.4 | 98.4 | 183 |
| 22 | CCCCCCCCCCCC1=C(O)C(=O)C=C(O)C1=O at 6000 nM | 199 | 265 | 93.5 | 39.8 | 98.8 | 106 | 142 | 48.5 | 106 | 56.8 | 16.6 | 116 |

Repeated from the top, 2 entries:

Second drug,COLO 792,WM1745,LB2518-MEL,MEL-HO,LOX IMVI,WM115,WM1716,WM3526,COLO 800,RVH-421,UACC-62,G-361
C[C@]1(O)C[C@@H](c2nc(-c3ccc4ccc(-c5ccccc5)nc4c3)c3c(N)nccn32)C1 at 2000 nM,134,129,124,140,82.7,106,15.3,195,182,81.9,56.4,124
Cc1cc(Nc2cc(N3CCN(C)CC3)nc(/C=C/c3ccccc3)n2)n[nH]1 at 200 nM,332,228,103,70.1,41.1,203,110,265,427,150,148,295